Data source: PubChem BioAssay AID1259254 (NCATS, 2017)
Here is an unselected part of about 59,000 reagents. In the full data, about 1,550 (2.6%) are marked active. 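G2 share is only a proxy for re-replication; each gene was hit by three separate siRNAs, and active genes were retested.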 The numbers tell different reagents against one gene apart. Further read-outs or replicates are left out here. Not given: the amount of reagent.

Test: 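Genome-wide screen for genes that prevent DNA re-replication in cancer cells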 (primary screen)
System: human HCT116 colorectal cancer cells
Reagent: single siRNA against human genes
Duration: 3 days
Detection: 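Nuclei stained with Hoechst and imaged; cell-cycle phase assigned by DNA content; G2 share scaled per plate, non-targeting siRNA 0%, GMNN siRNA 100%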
Direction: G2 robust z-score: higher = more G2 cells, more excess DNA replication
Hit rule: 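An siRNA counts as active if its G2 robust z-score lies at least 5 MADs above the screen median; here such calls match roughly 38% of GMNN control or more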

PLPPR5 (GeneID 163404) #1 → G2 robust z-score = -0.256; outcome = inactive
PLPPR5 (GeneID 163404) #2 → G2 robust z-score = -1.3; outcome = inactive
PLPPR5 (GeneID 163404) #3 → G2 robust z-score = 0.238; outcome = inactive
CRB2 (GeneID 286204) #1 → G2 robust z-score = 3.53; outcome = inactive
CRB2 (GeneID 286204) #2 → G2 robust z-score = -0.224; outcome = inactive
CRB2 (GeneID 286204) #3 → G2 robust z-score = -0.587; outcome = inactive
SLC33A2 (GeneID 113655) #1 → G2 robust z-score = -0.181; outcome = inactive
SLC33A2 (GeneID 113655) #2 → G2 robust z-score = 0.654; outcome = inactive
SLC33A2 (GeneID 113655) #3 → G2 robust z-score = -0.868; outcome = inactive
POFUT1 (GeneID 23509) #1 → G2 robust z-score = 0.638; outcome = inactive
POFUT1 (GeneID 23509) #2 → G2 robust z-score = -0.0963; outcome = inactive
POFUT1 (GeneID 23509) #3 → G2 robust z-score = 3.03; outcome = inactive
PCF11 (GeneID 51585) #1 → G2 robust z-score = 0.173; outcome = inactive
PCF11 (GeneID 51585) #2 → G2 robust z-score = 4.81; outcome = inactive
PCF11 (GeneID 51585) #3 → G2 robust z-score = 3.57; outcome = inactive
SLC4A1AP (GeneID 22950) #1 → G2 robust z-score = 0.374; outcome = inactive
SLC4A1AP (GeneID 22950) #2 → G2 robust z-score = -0.5; outcome = inactive
SLC4A1AP (GeneID 22950) #3 → G2 robust z-score = 2.25; outcome = inactive
SPRYD7 (GeneID 57213) #1 → G2 robust z-score = -0.0292; outcome = inactive
SPRYD7 (GeneID 57213) #2 → G2 robust z-score = -1.36; outcome = inactive
SPRYD7 (GeneID 57213) #3 → G2 robust z-score = 0.654; outcome = inactive
MBD6 (GeneID 114785) #1 → G2 robust z-score = 3.3; outcome = inactive
MBD6 (GeneID 114785) #2 → G2 robust z-score = 0.117; outcome = inactive
MBD6 (GeneID 114785) #3 → G2 robust z-score = -0.347; outcome = inactive

Sorted by “G2 robust z-score” (lowest first): some entries from above.
SPRYD7 (GeneID 57213) #1 → G2 robust z-score = -0.0292; outcome = inactive
SLC4A1AP (GeneID 22950) #3 → G2 robust z-score = 2.25; outcome = inactive
